Test results from the supplement of paper PMC7666118.
The other results are listed elsewhere or left out.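 How the source made its calls: active = dose-dependent thermal stabilisation significant by F-test of dose-response against flat model at 10% FDR; inactive = not significant.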

Sequences of proteins named here, by UniProt entry; tags and fusion partners are left off. A change or cut given only in a name is not applied to a line headed by its entry.
UniProt Q7L3S4: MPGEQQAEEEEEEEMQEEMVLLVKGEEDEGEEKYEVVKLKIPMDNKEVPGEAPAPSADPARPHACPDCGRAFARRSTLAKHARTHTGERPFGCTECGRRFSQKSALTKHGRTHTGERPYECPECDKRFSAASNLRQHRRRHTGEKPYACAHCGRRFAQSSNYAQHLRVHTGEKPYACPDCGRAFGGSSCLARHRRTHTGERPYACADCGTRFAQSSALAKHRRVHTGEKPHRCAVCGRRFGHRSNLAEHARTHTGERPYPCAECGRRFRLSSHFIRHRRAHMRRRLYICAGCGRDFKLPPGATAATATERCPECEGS
UniProt Q15649: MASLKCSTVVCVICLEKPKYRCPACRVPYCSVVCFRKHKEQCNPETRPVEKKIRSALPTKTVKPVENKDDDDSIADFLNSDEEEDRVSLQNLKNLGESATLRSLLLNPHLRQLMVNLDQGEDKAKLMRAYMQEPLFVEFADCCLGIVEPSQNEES
UniProt Q9BQ24: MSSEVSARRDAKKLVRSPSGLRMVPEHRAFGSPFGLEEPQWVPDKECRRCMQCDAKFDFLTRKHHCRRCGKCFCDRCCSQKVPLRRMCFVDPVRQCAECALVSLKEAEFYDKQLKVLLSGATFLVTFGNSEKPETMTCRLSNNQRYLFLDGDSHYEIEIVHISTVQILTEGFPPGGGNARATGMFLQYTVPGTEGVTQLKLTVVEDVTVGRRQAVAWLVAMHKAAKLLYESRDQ
UniProt P47974: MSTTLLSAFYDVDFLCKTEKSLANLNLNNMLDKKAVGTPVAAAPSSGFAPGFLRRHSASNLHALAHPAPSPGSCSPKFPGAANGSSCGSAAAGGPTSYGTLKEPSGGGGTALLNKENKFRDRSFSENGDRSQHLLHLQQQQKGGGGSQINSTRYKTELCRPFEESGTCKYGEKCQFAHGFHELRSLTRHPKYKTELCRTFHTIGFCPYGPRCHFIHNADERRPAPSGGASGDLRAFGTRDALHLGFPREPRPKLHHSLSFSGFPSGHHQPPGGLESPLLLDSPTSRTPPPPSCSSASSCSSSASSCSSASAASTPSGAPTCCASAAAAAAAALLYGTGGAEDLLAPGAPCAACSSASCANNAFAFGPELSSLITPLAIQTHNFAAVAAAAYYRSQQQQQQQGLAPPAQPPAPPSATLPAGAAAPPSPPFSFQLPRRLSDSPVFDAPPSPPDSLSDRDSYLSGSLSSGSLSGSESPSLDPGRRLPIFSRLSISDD
UniProt Q9UID6: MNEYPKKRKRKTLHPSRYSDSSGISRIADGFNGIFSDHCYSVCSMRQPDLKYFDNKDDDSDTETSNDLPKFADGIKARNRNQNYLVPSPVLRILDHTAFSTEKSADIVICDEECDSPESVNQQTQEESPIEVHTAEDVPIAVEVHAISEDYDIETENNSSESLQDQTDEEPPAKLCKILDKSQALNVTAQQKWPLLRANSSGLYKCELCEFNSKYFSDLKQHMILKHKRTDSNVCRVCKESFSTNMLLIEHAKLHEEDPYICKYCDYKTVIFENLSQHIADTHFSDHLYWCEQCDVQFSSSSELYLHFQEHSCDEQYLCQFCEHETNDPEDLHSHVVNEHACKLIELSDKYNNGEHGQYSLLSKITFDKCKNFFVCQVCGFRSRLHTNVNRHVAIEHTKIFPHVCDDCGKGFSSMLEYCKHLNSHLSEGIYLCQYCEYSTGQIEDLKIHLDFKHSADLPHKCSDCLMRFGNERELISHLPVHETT
UniProt Q9HBF4: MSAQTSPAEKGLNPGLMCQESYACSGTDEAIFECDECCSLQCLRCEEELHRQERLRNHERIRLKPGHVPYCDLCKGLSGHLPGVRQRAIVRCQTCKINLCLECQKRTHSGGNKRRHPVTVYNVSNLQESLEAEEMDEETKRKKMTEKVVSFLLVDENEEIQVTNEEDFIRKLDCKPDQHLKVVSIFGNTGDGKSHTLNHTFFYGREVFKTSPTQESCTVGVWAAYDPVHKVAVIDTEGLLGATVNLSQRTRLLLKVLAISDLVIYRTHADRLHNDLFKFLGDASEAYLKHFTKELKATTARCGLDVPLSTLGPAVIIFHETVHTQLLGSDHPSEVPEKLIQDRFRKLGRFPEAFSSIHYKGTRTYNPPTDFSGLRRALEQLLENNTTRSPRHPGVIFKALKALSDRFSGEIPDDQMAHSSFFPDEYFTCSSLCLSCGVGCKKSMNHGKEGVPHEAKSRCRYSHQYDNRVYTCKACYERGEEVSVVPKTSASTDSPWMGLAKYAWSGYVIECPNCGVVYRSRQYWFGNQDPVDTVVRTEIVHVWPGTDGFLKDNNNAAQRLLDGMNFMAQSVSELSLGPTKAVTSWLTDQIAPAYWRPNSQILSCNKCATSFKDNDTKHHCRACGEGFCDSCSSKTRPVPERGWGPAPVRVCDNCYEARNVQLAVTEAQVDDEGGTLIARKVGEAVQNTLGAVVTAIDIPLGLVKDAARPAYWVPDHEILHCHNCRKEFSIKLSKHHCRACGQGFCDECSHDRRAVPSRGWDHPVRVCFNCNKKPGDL
UniProt Q8NAF0: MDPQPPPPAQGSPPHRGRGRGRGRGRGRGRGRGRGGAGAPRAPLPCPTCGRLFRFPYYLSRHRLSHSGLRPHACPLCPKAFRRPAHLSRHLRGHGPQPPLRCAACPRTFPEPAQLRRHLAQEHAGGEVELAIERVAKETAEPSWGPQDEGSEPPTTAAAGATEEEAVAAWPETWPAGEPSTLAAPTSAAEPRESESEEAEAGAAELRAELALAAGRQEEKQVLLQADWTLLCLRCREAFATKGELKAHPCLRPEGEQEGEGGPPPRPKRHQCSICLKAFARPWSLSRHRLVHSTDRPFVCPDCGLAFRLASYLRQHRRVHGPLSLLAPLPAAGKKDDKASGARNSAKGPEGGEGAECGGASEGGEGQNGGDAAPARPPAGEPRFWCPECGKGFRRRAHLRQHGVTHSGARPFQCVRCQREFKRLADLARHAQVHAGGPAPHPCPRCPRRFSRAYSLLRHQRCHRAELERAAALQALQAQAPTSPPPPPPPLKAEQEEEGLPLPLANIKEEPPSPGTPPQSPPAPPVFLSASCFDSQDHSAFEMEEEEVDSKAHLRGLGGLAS
UniProt Q15942: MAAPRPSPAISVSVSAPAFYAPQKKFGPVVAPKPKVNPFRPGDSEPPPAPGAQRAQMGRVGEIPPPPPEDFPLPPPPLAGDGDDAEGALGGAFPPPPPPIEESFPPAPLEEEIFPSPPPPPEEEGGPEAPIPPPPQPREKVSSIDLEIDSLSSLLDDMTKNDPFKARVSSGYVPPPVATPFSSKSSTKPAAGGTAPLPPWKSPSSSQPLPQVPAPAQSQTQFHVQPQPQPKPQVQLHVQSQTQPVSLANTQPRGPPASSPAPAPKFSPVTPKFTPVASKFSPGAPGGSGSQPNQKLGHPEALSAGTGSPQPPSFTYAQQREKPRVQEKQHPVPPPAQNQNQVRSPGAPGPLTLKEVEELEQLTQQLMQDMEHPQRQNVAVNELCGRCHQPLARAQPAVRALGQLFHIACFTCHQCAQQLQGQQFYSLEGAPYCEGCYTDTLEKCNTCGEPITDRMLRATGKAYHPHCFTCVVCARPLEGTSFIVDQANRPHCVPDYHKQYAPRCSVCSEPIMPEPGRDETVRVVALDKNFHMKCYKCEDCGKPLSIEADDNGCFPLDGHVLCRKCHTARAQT
UniProt O95229: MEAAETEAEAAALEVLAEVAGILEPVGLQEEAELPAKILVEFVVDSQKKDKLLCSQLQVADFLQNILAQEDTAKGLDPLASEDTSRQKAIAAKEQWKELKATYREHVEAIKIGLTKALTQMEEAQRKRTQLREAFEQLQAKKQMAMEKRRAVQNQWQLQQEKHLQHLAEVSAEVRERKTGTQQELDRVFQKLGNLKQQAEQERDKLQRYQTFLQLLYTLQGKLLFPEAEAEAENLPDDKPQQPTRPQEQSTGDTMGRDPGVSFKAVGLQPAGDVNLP
UniProt O95218: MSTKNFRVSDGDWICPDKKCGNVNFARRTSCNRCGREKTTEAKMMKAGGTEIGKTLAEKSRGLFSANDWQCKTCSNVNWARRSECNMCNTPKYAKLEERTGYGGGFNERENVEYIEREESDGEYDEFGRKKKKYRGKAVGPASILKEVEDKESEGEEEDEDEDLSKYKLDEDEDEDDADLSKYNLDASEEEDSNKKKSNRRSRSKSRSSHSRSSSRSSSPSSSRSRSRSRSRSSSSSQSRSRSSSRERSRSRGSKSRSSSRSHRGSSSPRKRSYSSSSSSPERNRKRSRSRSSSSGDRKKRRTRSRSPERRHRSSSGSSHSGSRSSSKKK

compound: Nc1nc2c(ncn2[C@@H]2O[C@H](COP(=O)(O)OP(=O)(O)OP(=O)(O)O)[C@@H](O)[C@H]2O)c(=O)[nH]1; assay: dose-dependent thermal stabilisation call (2D-TPP, DLPTP, 10% FDR) (binary (1 = stabilised)); higher = stabilised by the compound; details: system: Jurkat gel-filtered lysate; concentration range 1-500 µM
Experimental: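 2D thermal proteome profiling in gel-filtered Jurkat E6.1 lysate (2 mg/ml) treated with NaGTP (0, 1, 10, 100, 500 uM) for 10 min at room temperature, then heated 3 min at one of 12 temperatures (42-63.9 C). Soluble protein was quantified by TMT10 MS. The value is the DLPTP call of the paper: dose-dependent thermal stabilisation over all temperatures at 10% FDR (F-test of a dose-response against a flat model); one experiment, one call per tested protein.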

dose-dependent thermal stabilisation call, inactive:
ZNF771 (UniProt Q7L3S4) 0, ZNHIT3 (UniProt Q15649) 0, ZFYVE21 (UniProt Q9BQ24) 0, ZFP36L2 (UniProt P47974) 0, ZNF639 (UniProt Q9UID6) 0, ZFYVE1 (UniProt Q9HBF4) 0, ZNF579 (UniProt Q8NAF0) 0, ZYX (UniProt Q15942) 0, ZWINT (UniProt O95229) 0, ZRANB2 (UniProt O95218) 0
